Test results from the supplement of paper PMC10849652.
This is one part of the list.

By UniProt entry, the sequences of proteins in these tests, tags left out. Where a name states a change or a piece, a line headed by the entry shows the natural chain unless it says otherwise.
UniProt Q6RW13: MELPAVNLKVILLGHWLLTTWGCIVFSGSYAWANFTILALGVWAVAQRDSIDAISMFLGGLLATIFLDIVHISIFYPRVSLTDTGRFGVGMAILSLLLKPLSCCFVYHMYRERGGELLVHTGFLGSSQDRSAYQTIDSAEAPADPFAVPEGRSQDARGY
UniProt P54922: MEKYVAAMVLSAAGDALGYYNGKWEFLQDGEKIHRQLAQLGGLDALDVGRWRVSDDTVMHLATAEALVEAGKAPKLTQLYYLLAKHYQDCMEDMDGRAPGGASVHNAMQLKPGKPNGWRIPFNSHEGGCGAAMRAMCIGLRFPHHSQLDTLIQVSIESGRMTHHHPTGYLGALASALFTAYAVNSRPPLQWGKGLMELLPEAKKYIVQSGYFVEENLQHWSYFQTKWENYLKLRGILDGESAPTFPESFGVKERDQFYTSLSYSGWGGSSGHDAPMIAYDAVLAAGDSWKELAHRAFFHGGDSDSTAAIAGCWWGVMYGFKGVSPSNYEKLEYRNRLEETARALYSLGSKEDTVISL
UniProt P35612: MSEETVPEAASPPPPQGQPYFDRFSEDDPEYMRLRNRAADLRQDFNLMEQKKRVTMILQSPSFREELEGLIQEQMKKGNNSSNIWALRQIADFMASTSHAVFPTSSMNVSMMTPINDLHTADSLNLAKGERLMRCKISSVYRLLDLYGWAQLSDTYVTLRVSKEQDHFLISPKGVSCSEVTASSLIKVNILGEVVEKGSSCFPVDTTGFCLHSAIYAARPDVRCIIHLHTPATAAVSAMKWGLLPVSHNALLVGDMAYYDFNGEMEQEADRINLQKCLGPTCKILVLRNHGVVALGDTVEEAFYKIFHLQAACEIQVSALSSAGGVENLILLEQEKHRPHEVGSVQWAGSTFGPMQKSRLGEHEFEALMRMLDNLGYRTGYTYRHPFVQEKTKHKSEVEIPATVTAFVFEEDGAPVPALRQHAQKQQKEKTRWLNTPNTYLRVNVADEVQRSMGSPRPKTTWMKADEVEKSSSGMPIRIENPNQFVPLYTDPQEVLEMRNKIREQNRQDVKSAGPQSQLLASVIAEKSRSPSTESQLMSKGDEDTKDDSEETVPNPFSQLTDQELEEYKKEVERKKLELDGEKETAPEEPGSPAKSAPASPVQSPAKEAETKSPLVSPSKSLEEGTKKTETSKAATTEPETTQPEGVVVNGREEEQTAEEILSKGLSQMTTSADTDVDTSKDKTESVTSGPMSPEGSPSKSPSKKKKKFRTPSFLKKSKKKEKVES
UniProt P05091: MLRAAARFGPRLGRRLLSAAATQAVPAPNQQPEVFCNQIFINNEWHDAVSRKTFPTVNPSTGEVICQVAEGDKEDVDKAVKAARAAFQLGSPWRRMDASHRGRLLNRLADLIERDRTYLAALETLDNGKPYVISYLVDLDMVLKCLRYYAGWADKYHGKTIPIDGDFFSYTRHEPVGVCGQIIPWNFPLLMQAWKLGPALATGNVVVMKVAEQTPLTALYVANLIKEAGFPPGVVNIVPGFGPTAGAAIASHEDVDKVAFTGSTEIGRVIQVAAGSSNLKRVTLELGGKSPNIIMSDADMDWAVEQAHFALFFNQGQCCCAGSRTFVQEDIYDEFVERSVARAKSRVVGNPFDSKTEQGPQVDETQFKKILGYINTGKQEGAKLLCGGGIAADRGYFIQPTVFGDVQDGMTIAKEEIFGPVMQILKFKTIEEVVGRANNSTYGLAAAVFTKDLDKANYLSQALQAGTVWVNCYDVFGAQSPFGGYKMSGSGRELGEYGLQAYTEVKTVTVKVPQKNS
UniProt Q8TCU4: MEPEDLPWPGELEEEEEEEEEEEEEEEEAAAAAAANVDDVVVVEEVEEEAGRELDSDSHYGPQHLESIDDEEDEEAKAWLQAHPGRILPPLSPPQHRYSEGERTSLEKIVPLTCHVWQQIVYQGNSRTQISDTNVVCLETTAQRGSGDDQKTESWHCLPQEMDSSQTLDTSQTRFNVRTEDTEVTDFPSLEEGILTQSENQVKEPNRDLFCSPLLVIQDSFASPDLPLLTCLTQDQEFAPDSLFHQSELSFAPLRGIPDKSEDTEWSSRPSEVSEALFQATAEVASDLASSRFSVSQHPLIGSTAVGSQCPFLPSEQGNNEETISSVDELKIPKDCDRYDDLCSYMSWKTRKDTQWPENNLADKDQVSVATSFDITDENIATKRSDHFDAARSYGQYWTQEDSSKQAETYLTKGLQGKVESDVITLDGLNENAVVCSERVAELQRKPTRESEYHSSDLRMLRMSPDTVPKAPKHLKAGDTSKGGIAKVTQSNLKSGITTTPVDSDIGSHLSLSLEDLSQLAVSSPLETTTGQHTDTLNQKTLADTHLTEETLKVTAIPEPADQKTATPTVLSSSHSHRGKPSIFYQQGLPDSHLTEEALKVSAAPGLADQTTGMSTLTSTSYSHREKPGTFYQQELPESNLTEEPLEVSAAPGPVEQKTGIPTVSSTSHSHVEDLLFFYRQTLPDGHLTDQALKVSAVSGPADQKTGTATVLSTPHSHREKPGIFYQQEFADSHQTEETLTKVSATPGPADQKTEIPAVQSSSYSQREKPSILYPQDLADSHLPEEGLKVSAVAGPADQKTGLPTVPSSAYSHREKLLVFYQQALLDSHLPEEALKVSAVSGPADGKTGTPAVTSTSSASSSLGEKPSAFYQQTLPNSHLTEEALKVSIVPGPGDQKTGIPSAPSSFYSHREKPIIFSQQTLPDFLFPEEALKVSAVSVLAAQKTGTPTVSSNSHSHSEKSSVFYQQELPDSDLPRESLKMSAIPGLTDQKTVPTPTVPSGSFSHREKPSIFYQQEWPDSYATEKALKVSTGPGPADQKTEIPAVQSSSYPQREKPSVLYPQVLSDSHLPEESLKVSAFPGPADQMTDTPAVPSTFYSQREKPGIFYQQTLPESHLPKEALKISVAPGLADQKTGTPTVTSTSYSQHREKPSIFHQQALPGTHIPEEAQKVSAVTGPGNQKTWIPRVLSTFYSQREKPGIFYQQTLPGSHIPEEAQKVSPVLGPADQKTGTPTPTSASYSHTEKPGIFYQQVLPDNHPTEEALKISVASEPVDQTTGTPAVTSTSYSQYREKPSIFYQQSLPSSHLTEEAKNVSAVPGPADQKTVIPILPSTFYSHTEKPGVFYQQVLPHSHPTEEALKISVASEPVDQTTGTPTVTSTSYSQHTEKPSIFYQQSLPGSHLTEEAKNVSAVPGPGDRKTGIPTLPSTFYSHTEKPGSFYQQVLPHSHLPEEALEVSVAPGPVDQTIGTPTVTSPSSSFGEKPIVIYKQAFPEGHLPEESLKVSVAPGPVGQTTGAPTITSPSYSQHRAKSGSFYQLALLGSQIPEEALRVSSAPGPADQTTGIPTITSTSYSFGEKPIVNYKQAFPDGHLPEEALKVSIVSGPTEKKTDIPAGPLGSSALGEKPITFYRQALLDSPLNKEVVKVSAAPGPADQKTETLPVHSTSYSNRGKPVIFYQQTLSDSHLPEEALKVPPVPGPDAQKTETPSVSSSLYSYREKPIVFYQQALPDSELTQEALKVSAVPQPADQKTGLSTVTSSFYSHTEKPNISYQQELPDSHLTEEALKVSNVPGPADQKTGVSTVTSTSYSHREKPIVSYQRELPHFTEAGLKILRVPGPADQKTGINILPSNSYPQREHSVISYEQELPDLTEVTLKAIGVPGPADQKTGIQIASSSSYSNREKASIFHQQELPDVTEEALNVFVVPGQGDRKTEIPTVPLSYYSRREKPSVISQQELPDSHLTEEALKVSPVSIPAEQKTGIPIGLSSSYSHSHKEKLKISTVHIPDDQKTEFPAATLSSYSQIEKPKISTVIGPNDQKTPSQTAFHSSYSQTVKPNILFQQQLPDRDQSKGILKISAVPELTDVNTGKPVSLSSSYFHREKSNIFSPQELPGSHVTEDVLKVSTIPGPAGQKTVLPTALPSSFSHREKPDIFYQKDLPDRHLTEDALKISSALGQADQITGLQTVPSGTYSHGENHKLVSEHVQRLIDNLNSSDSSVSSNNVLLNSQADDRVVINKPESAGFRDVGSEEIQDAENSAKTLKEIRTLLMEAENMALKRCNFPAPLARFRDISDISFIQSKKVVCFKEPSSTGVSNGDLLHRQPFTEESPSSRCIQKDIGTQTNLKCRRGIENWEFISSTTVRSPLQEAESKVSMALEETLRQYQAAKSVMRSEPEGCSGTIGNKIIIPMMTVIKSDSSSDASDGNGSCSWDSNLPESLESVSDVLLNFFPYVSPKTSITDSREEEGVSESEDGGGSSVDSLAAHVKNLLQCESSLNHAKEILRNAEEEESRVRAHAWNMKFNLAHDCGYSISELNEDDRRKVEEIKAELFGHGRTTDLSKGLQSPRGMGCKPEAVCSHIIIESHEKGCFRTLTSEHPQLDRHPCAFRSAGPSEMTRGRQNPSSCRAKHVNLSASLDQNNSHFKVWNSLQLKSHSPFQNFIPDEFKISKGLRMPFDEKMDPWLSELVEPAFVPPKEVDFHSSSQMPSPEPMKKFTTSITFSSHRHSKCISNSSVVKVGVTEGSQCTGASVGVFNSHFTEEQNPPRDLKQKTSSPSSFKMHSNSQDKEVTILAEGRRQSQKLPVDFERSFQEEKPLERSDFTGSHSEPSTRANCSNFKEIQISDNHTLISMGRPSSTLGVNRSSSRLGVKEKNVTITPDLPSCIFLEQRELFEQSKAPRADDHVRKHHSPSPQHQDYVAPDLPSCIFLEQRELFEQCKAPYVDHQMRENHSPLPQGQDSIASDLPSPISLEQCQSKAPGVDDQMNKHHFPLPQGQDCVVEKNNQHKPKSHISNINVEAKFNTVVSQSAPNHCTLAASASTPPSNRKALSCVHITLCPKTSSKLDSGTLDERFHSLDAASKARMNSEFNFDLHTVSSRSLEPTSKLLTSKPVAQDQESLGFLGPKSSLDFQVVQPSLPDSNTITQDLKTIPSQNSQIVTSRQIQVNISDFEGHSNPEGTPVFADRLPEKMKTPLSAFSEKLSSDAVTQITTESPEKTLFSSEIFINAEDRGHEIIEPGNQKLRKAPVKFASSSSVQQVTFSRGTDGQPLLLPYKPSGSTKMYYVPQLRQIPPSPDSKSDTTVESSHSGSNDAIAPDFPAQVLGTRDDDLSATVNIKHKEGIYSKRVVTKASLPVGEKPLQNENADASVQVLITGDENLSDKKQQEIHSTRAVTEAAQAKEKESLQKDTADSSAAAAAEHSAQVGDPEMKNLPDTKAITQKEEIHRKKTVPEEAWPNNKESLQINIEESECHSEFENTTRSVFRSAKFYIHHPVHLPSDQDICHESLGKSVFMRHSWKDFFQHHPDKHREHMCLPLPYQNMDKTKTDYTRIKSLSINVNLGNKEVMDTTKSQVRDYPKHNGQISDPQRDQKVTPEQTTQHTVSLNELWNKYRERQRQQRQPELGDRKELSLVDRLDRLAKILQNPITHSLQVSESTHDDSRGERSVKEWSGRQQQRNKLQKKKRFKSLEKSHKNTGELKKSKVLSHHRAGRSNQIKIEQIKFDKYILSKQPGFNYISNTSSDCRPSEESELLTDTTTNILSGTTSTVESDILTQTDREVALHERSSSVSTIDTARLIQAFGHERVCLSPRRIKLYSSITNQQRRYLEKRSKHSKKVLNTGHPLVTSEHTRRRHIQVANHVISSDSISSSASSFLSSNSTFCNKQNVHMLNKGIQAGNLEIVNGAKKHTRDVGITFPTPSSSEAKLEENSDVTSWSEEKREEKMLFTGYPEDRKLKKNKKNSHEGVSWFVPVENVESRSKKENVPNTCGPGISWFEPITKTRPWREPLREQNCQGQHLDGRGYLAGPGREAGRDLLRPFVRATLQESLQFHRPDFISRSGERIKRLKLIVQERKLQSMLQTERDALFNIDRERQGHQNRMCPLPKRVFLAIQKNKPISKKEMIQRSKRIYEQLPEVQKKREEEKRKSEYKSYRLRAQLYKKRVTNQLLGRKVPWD
UniProt Q3LIE5: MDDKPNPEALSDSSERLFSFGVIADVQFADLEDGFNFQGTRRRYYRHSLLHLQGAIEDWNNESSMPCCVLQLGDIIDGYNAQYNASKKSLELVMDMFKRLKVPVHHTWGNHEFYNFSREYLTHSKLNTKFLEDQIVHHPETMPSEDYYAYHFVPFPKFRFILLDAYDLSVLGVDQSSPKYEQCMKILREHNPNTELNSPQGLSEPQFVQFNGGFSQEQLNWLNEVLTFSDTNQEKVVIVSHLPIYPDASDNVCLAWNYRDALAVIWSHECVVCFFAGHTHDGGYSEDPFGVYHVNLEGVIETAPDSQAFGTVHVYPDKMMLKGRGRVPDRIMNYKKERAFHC
UniProt Q04828: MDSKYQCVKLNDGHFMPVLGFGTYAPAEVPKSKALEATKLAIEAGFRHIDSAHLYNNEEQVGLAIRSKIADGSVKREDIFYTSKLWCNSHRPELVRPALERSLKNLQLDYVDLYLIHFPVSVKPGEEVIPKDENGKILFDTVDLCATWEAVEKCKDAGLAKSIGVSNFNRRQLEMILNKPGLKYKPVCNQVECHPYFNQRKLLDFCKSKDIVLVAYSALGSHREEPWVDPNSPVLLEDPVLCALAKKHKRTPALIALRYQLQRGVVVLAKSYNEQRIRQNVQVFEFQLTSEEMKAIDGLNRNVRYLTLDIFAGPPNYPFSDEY

Assays:
Assay in all cases: log2 fold change, soluble protein after heating vs DMSO (PISA); higher = thermal stabilisation; K562 cells, 10 uM, 30 min; active = over 0.2 and 3.5 SD of the protein, either way, in both replicates (recomputed)
sotrastaurin = compound: CN1CCN(c2nc(C3=C(c4c[nH]c5ccccc45)C(=O)NC3=O)c3ccccc3n2)CC1 [sotrastaurin]
Procedure, shortened: (§1)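 K562 cells at 2×10^6 cells/mL were exposed to 10 μM compound for 30 min, then aliquots were heated for 3 min across 48°C-58°C, pooled, and extracted in PBS containing 0.5% NP-40 at 4°C. The supernatant after 21,000xg for 90 min was taken as soluble protein and measured by TMTpro 16plex LC-MS/MS with channel sums equalised. Thermal stability is reported relative to control samples, with values from duplicates. Fold changes are given on a log2 scale.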

alvocidib = compound: CN1CC[C@H](c2c(O)cc(O)c3c(=O)cc(-c4ccccc4Cl)oc23)[C@H](O)C1 [alvocidib]
Procedure, shortened: as §1

rucaparib = compound: CNCc1ccc(-c2[nH]c3cc(F)cc4c3c2CCNC4=O)cc1 [rucaparib]
Procedure, shortened: as §1

encorafenib = compound: COC(=O)N[C@@H](C)CNc1nccc(-c2cn(C(C)C)nc2-c2cc(Cl)cc(NS(C)(=O)=O)c2F)n1 [encorafenib]
Procedure, shortened: as §1

[1] = compound: COC1=CC=C(C=C1)CN2C=CC3=C2C=C(C=C3)C(=O)NO
Procedure, shortened: as §1

filanesib = compound: CON(C)C(=O)N1N=C(c2cc(F)ccc2F)S[C@@]1(CCCN)c1ccccc1 [filanesib]
Procedure, shortened: as §1

zotarolimus = compound: CO[C@H]1C[C@@H]2CC[C@@H](C)[C@@](O)(O2)C(=O)C(=O)N2CCCC[C@H]2C(=O)O[C@H]([C@H](C)C[C@@H]2CC[C@H](n3cnnn3)[C@H](OC)C2)CC(=O)[C@H](C)/C=C(\C)[C@@H](O)[C@@H](OC)C(=O)[C@H](C)C[C@H](C)/C=C/C=C/C=C/1C [zotarolimus]
Procedure, shortened: as §1

pictilisib = compound: CS(=O)(=O)N1CCN(Cc2cc3nc(-c4cccc5[nH]ncc45)nc(N4CCOCC4)c3s2)CC1 [pictilisib]
Procedure, shortened: as §1

Tubastatin A = compound: CN1CCc2c(c3ccccc3n2Cc2ccc(C(=O)NO)cc2)C1 [Tubastatin A]
Procedure, shortened: as §1

[2] = compound: CNC(=O)C1=CC=CC=C1NC2=NC(=NC=C2Cl)NC3=C(C=C(C=C3)N4CCOCC4)OC
Procedure, shortened: as §1

idasanutlin = compound: COc1cc(C(=O)O)ccc1NC(=O)[C@@H]1N[C@@H](CC(C)(C)C)[C@](C#N)(c2ccc(Cl)cc2F)[C@H]1c1cccc(Cl)c1F [idasanutlin]
Procedure, shortened: as §1

alisertib = compound: COc1cc(Nc2ncc3c(n2)-c2ccc(Cl)cc2C(c2c(F)cccc2OC)=NC3)ccc1C(=O)O [alisertib]
Procedure, shortened: as §1

[3] = compound: COc1cc2nc(-c3cc(F)ccc3O)nc(N[C@@H]3CNC[C@H]3C(C)(C)O)c2cc1OC
Procedure, shortened: as §1

gefitinib = compound: COc1cc2ncnc(Nc3ccc(F)c(Cl)c3)c2cc1OCCCN1CCOCC1 [gefitinib]
Procedure, shortened: as §1

[4] = compound: COc1cccc2cc(-c3nc([C@H]4CC[C@H](C(=O)O)CC4)n4ncnc(N)c34)[nH]c12
Procedure, shortened: as §1

lapatinib = compound: CS(=O)(=O)CCNCc1ccc(-c2ccc3ncnc(Nc4ccc(OCc5cccc(F)c5)c(Cl)c4)c3c2)o1 [lapatinib]
Procedure, shortened: as §1

defactinib = compound: CNC(=O)c1ccc(Nc2ncc(C(F)(F)F)c(NCc3nccnc3N(C)S(C)(=O)=O)n2)cc1 [defactinib]
Procedure, shortened: as §1

[5] = compound: COC(=O)[C@H](CCSC)NC(=O)C1=C(C=C(C=C1)NC[C@H](CS)N)C2=CC=CC=C2
Procedure, shortened: as §1

Measured: log2 fold change

AKAP11 (UniProt Q9UKA4)
inactive: sotrastaurin -0.13 | alvocidib 0.13 | rucaparib 0.467 | encorafenib 0.306 | [1] -0.097 | filanesib 0.228 | zotarolimus -0.025 | pictilisib -0.015

AGAP3 isoform 4 (UniProt Q96P47)
inactive: sotrastaurin -0.233 | Tubastatin A 0.166 | [2] -0.033 | rucaparib 0.178 | encorafenib -0.104 | [1] -0.051 | filanesib 0.24 | zotarolimus -0.02 | idasanutlin 0.12 | alisertib -0.073 | [3] 0.079 | gefitinib 0.28 | [4] -0.1 | lapatinib 0.038

ADGRE2 (UniProt Q9UHX3)
inactive: sotrastaurin -0.019 | Tubastatin A 0.002 | [2] 0.003 | defactinib 0.043 | rucaparib 0 | encorafenib 0.111 | [5] -0.008 | [1] -0.012 | filanesib -0.025 | idasanutlin 0.012 | alisertib 0.535 | [3] -0.03 | gefitinib 0.015 | [4] -0.057 | lapatinib -0.03 | pictilisib 0

ADD1 isoform 4 (UniProt P35611)
inactive: [1] -0.054 | zotarolimus -0.065 | pictilisib -0.068

ADGB (UniProt Q8N7X0)
inactive: rucaparib 0.348 | encorafenib -0.514 | [1] -0.342 | alisertib 0.55 | [3] 0.008 | [4] -0.035 | lapatinib -0.063 | pictilisib 0.246

ADH1A (UniProt P07327)
inactive: sotrastaurin 0.113 | [1] -0.007 | filanesib -0.021

ANAPC15 isoform 2 (UniProt P60006)
inactive: alvocidib 0.273 | Tubastatin A 0.037 | [2] -0.078 | defactinib 0.143 | rucaparib 0.291 | encorafenib 0.087 | [5] -0.024 | [1] 0.063 | zotarolimus 0.015 | idasanutlin 0.036 | [3] -0.035 | lapatinib 0.042

ALAS1 (UniProt P13196)
inactive: sotrastaurin 0.116 | [2] 0.105 | rucaparib -0.087 | encorafenib 0.047 | filanesib -0.073 | idasanutlin -0.151 | alisertib 0.027 | [3] 0.077 | [4] -0.039 | lapatinib 0.086 | pictilisib 0.396

7 successive records already listed, quoted:
AKAP11 (UniProt Q9UKA4)
inactive: sotrastaurin -0.13 | alvocidib 0.13 | rucaparib 0.467 | encorafenib 0.306 | [1] -0.097 | filanesib 0.228 | zotarolimus -0.025 | pictilisib -0.015

AGAP3 isoform 4 (UniProt Q96P47)
inactive: sotrastaurin -0.233 | Tubastatin A 0.166 | [2] -0.033 | rucaparib 0.178 | encorafenib -0.104 | [1] -0.051 | filanesib 0.24 | zotarolimus -0.02 | idasanutlin 0.12 | alisertib -0.073 | [3] 0.079 | gefitinib 0.28 | [4] -0.1 | lapatinib 0.038

ADGRE2 (UniProt Q9UHX3)
inactive: sotrastaurin -0.019 | Tubastatin A 0.002 | [2] 0.003 | defactinib 0.043 | rucaparib 0 | encorafenib 0.111 | [5] -0.008 | [1] -0.012 | filanesib -0.025 | idasanutlin 0.012 | alisertib 0.535 | [3] -0.03 | gefitinib 0.015 | [4] -0.057 | lapatinib -0.03 | pictilisib 0

ADD1 isoform 4 (UniProt P35611)
inactive: [1] -0.054 | zotarolimus -0.065 | pictilisib -0.068

ADGB (UniProt Q8N7X0)
inactive: rucaparib 0.348 | encorafenib -0.514 | [1] -0.342 | alisertib 0.55 | [3] 0.008 | [4] -0.035 | lapatinib -0.063 | pictilisib 0.246

ADH1A (UniProt P07327)
inactive: sotrastaurin 0.113 | [1] -0.007 | filanesib -0.021

ANAPC15 isoform 2 (UniProt P60006)
inactive: alvocidib 0.273 | Tubastatin A 0.037 | [2] -0.078 | defactinib 0.143 | rucaparib 0.291 | encorafenib 0.087 | [5] -0.024 | [1] 0.063 | zotarolimus 0.015 | idasanutlin 0.036 | [3] -0.035 | lapatinib 0.042

Further entries

AKAP9 isoform 6 (UniProt Q99996)
inactive: alvocidib 0.3 | rucaparib -0.036 | encorafenib -0.08 | [1] -0.051 | zotarolimus 0.321 | alisertib 0.022 | gefitinib 0.055 | [4] 0.074

ADNP (UniProt Q9H2P0)
inactive: sotrastaurin -0.024 | [1] -0.07 | filanesib 0.115 | idasanutlin 0.121 | alisertib 0.1 | gefitinib 0.047 | [4] -0.064 | pictilisib -0.374

AGTRAP isoform 2 (UniProt Q6RW13)
inactive: Tubastatin A -0.057 | [2] -0.031 | rucaparib -0.11 | encorafenib -0.047 | pictilisib -0.004

AHSP (UniProt Q9NZD4)
inactive: [2] 0.155 | alisertib -0.145 | gefitinib 0.095 | [4] 0.002

ALDOB (UniProt P05062)
inactive: sotrastaurin -0.015 | filanesib -0.144

ADPRH (UniProt P54922)
inactive: sotrastaurin -0.067 | Tubastatin A 0.213 | [2] -0.011 | defactinib -0.076 | [5] 0.028 | [1] 0.098 | filanesib -0.088 | alisertib -0.099 | [3] 0.135 | gefitinib 0.013 | [4] -0.033 | lapatinib 0.05 | pictilisib -0.107

AEBP2 (UniProt Q6ZN18)
inactive: [2] -0.011 | rucaparib 0.022 | encorafenib 0.038 | [1] 0.127

ADD2 isoform 9 (UniProt P35612)
inactive: sotrastaurin -0.122 | filanesib 0.043 | alisertib -0.072 | [3] -0.053 | [4] 0.282 | lapatinib 0.04

AKNA (UniProt Q7Z591)
inactive: sotrastaurin -0.017 | [2] -0.074 | filanesib 0.04 | zotarolimus 0.01 | [3] 0.205 | lapatinib -0.059

ALDH1L1 isoform 3 (UniProt O75891)
inactive: sotrastaurin 0.097 | filanesib -0.137

ALDH2 isoform 2 (UniProt P05091)
inactive: sotrastaurin 0.161 | Tubastatin A 0.005 | defactinib 0.06 | rucaparib -0.255 | encorafenib 0.097 | [5] -0.003 | filanesib 0.013 | idasanutlin 0 | [3] 0.166 | lapatinib -0.266 | pictilisib -0.035

AGGF1 (UniProt Q8N302)
inactive: [2] -0.175 | alisertib -0.019 | [4] -0.022

ALS2 (UniProt Q96Q42)
inactive: Tubastatin A 0.014 | [2] -0.059 | [3] -0.02 | lapatinib -0.066

AGA (UniProt P20933)
inactive: alvocidib 0.114 | [2] -0.019 | rucaparib -0.146 | encorafenib -0.038 | zotarolimus -0.1 | alisertib -0.102 | [3] -0.103 | [4] -0.05 | lapatinib 0.039 | pictilisib -0.004

ALDH7A1 (UniProt P49419)
inactive: sotrastaurin -0.074 | rucaparib 0 | encorafenib -0.098 | filanesib -0.003 | alisertib 0.827 | [4] -0.23 | pictilisib -0.016

ALMS1 (UniProt Q8TCU4)
inactive: [2] 0.02 | rucaparib -0.067 | encorafenib -0.034 | gefitinib 0.195 | pictilisib 0.133

AIF1 (UniProt P55008)
inactive: sotrastaurin 0.025 | [2] 0.15 | defactinib 0.032 | [5] -0.046 | filanesib 0.038 | idasanutlin 0.052 | [3] 0.083 | lapatinib 0.053

ADPRM (UniProt Q3LIE5)
inactive: sotrastaurin 0.13 | [2] -0.053 | filanesib -0.074

AFMID isoform 2 (UniProt Q63HM1)
inactive: defactinib -0.122 | [5] -0.025 | alisertib 0.015 | [4] 0.078

ALKBH7 (UniProt Q9BT30)
inactive: alvocidib 0.176 | zotarolimus -0.091 | pictilisib 0.071

AKR1C1 (UniProt Q04828)
inactive: alisertib -0.01 | [4] -0.31
